Reference: PubChem BioAssay AID1159584 (Peter MacCallum Cancer Centre, 2016)
This is an unselected part of about 18,000 reagents. Not all columns of the deposit are shown. Not given: the amount of reagent, the time to read-out.

- Purpose: 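Genes whose loss is lethal only together with E-cadherin loss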 (primary screen)
- Cells: human MCF10A breast epithelial cells, parental and CDH1-null
- Knock-down reagent: siRNA against human genes
- Measurement: 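Cell viability by CellTiter-Glo ATP luminescence, each line scaled to the mean of mock wells across plates, then CDH1-null over parental ratio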
- Reading the numbers: CDH1-null / parental viability ratio: higher = CDH1-null cells survive relatively better than parental; CDH1-null viability vs mock: higher = more viable CDH1-null cells
- Units: CDH1-null viability vs mock in fraction of mock

SHF (Src homology 2 domain containing F)
- CDH1-null / parental viability ratio: 1.33
- CDH1-null viability vs mock: 0.6

LENG9 (leukocyte receptor cluster member 9)
- CDH1-null / parental viability ratio: 0.76
- CDH1-null viability vs mock: 0.48

PPP6C (protein phosphatase 6 catalytic subunit)
- CDH1-null / parental viability ratio: 1.3
- CDH1-null viability vs mock: 0.86

VPS35L (VPS35 endosomal protein sorting factor like)
- CDH1-null / parental viability ratio: 0.86
- CDH1-null viability vs mock: 0.64

ROBO4 (roundabout guidance receptor 4)
- CDH1-null / parental viability ratio: 1.54
- CDH1-null viability vs mock: 0.88

H1-10 (H1.10 linker histone)
- CDH1-null / parental viability ratio: 0.88
- CDH1-null viability vs mock: 0.45

CTC1 (CST telomere replication complex component 1)
- CDH1-null / parental viability ratio: 1.08
- CDH1-null viability vs mock: 0.84

SYNE2 (spectrin repeat containing nuclear envelope protein 2)
- CDH1-null / parental viability ratio: 1.16
- CDH1-null viability vs mock: 1.04

YTHDF2 (YTH N6-methyladenosine RNA binding protein F2)
- CDH1-null / parental viability ratio: 0.48
- CDH1-null viability vs mock: 0.25

FCRL4 (Fc receptor like 4)
- CDH1-null / parental viability ratio: 1.03
- CDH1-null viability vs mock: 0.7

HARBI1 (harbinger transposase derived 1)
- CDH1-null / parental viability ratio: 0.85
- CDH1-null viability vs mock: 0.82

THTPA (thiamine triphosphatase)
- CDH1-null / parental viability ratio: 1.29
- CDH1-null viability vs mock: 0.9

FAM8A1 (family with sequence similarity 8 member A1)
- CDH1-null / parental viability ratio: 1.03
- CDH1-null viability vs mock: 0.98

ZNF540 (zinc finger protein 540)
- CDH1-null / parental viability ratio: 0.89
- CDH1-null viability vs mock: 0.51

TNFRSF10D (TNF receptor superfamily member 10d)
- CDH1-null / parental viability ratio: 1.24
- CDH1-null viability vs mock: 0.89

Continued, starting with the last 3 of the part before.
FAM8A1 (family with sequence similarity 8 member A1)
- CDH1-null / parental viability ratio: 1.03
- CDH1-null viability vs mock: 0.98

ZNF540 (zinc finger protein 540)
- CDH1-null / parental viability ratio: 0.89
- CDH1-null viability vs mock: 0.51

TNFRSF10D (TNF receptor superfamily member 10d)
- CDH1-null / parental viability ratio: 1.24
- CDH1-null viability vs mock: 0.89

EXTL3 (exostosin like glycosyltransferase 3)
- CDH1-null / parental viability ratio: 0.92
- CDH1-null viability vs mock: 0.81

LRRC74A (leucine rich repeat containing 74A)
- CDH1-null / parental viability ratio: 0.98
- CDH1-null viability vs mock: 0.88

ATP6AP2 (ATPase H+ transporting accessory protein 2)
- CDH1-null / parental viability ratio: 1.28
- CDH1-null viability vs mock: 0.73

PALLD (palladin, cytoskeletal associated protein)
- CDH1-null / parental viability ratio: 0.81
- CDH1-null viability vs mock: 0.86

RSPH10B (radial spoke head 10 homolog B)
- CDH1-null / parental viability ratio: 1.34
- CDH1-null viability vs mock: 0.78

NIFK (nucleolar protein interacting with the FHA domain of MKI67)
- CDH1-null / parental viability ratio: 1.04
- CDH1-null viability vs mock: 0.52

CHKB (choline kinase beta)
- CDH1-null / parental viability ratio: 0.98
- CDH1-null viability vs mock: 0.98

LTBP3 (latent transforming growth factor beta binding protein 3)
- CDH1-null / parental viability ratio: 1.02
- CDH1-null viability vs mock: 0.45

RNF166 (ring finger protein 166)
- CDH1-null / parental viability ratio: 1
- CDH1-null viability vs mock: 0.94

CCDC47 (coiled-coil domain containing 47)
- CDH1-null / parental viability ratio: 0.9
- CDH1-null viability vs mock: 0.62

DPPA5 (developmental pluripotency associated 5)
- CDH1-null / parental viability ratio: 0.72
- CDH1-null viability vs mock: 0.66

MELTF (melanotransferrin)
- CDH1-null / parental viability ratio: 1.1
- CDH1-null viability vs mock: 0.9

APPBP2 (amyloid beta precursor protein binding protein 2)
- CDH1-null / parental viability ratio: 0.94
- CDH1-null viability vs mock: 0.64

NIPBL (NIPBL cohesin loading factor)
- CDH1-null / parental viability ratio: 0.92
- CDH1-null viability vs mock: 0.48

SEC23IP (SEC23 interacting protein)
- CDH1-null / parental viability ratio: 0.74
- CDH1-null viability vs mock: 0.67

ZNF274 (zinc finger protein 274)
- CDH1-null / parental viability ratio: 1.06
- CDH1-null viability vs mock: 0.83

NVL (nuclear VCP like)
- CDH1-null / parental viability ratio: 0.81
- CDH1-null viability vs mock: 0.55

TCF20 (transcription factor 20)
- CDH1-null / parental viability ratio: 1.04
- CDH1-null viability vs mock: 1.12

TOM1L2 (target of myb1 like 2 membrane trafficking protein)
- CDH1-null / parental viability ratio: 1.08
- CDH1-null viability vs mock: 1.21

DCUN1D5 (defective in cullin neddylation 1 domain containing 5)
- CDH1-null / parental viability ratio: 1.22
- CDH1-null viability vs mock: 1.1
